The supplement of paper PMC6411743
± gives the standard deviation of the averaged measurements. Only a part is listed here, and it is no random draw. Most entries show no effect beyond the scatter of the controls.

Protein sequences, listed by entry. Tags and fused reporters are not part of them. Lines headed by an entry give the natural chain unless they say otherwise; changes in a name come on top.
UniProt Q86XL3: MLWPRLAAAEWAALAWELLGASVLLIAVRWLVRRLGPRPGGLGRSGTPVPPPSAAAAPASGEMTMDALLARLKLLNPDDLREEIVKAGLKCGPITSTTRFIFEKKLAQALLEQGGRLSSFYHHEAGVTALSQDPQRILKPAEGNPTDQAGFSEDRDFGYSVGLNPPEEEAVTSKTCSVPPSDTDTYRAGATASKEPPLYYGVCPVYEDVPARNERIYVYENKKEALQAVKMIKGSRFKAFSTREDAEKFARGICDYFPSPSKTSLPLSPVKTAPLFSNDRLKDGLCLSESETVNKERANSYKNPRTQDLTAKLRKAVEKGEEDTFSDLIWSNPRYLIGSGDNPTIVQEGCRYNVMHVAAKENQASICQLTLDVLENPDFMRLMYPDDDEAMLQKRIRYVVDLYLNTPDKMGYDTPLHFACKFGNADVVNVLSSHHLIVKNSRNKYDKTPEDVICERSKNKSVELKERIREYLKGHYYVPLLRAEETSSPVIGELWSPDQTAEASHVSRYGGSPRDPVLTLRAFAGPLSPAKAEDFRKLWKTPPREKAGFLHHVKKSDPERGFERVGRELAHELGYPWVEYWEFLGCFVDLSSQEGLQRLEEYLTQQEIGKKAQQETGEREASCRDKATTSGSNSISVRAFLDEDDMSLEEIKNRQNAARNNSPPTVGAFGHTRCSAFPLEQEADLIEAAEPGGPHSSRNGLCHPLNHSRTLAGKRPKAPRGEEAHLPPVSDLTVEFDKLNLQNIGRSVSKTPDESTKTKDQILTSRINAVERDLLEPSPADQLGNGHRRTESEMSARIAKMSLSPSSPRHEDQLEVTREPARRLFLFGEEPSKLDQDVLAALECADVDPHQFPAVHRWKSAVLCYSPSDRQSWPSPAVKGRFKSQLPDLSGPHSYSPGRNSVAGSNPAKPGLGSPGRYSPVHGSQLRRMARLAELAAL
UniProt Q86WR0: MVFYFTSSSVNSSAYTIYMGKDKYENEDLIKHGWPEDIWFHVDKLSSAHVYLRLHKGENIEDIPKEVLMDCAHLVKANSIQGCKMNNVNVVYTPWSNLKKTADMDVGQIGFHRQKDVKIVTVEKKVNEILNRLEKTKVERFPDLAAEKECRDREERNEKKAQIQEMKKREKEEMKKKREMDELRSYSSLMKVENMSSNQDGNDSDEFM
UniProt Q96JN0: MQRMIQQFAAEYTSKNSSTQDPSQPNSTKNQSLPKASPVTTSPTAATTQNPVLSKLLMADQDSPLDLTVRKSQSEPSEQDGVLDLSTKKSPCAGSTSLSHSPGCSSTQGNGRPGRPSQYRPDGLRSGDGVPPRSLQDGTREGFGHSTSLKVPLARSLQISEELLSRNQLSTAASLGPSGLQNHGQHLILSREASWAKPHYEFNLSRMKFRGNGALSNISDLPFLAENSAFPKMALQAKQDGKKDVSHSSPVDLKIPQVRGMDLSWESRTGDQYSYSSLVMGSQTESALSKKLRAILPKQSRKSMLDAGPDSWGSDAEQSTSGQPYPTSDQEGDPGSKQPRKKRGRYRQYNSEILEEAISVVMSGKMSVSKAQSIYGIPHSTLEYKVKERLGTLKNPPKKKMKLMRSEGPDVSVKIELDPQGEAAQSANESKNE
UniProt Q8IXQ3: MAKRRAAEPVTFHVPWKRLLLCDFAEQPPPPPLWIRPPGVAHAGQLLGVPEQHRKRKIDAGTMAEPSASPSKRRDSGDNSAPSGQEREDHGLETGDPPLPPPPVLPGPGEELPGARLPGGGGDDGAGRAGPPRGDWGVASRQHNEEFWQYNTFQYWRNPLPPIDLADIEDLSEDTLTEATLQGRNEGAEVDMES
UniProt Q86UL3: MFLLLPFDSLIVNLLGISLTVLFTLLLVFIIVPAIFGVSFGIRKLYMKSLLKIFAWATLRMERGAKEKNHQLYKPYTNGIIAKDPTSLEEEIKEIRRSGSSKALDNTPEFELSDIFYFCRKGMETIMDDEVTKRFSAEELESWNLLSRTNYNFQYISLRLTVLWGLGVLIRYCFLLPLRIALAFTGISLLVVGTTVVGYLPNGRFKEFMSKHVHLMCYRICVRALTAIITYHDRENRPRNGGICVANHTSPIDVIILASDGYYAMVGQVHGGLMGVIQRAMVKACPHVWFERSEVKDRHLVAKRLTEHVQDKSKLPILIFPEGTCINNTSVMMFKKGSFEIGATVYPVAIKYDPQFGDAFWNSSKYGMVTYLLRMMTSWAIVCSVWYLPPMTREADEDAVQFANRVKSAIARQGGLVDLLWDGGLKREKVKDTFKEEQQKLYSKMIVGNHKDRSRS
UniProt Q8IXW5, whole entry: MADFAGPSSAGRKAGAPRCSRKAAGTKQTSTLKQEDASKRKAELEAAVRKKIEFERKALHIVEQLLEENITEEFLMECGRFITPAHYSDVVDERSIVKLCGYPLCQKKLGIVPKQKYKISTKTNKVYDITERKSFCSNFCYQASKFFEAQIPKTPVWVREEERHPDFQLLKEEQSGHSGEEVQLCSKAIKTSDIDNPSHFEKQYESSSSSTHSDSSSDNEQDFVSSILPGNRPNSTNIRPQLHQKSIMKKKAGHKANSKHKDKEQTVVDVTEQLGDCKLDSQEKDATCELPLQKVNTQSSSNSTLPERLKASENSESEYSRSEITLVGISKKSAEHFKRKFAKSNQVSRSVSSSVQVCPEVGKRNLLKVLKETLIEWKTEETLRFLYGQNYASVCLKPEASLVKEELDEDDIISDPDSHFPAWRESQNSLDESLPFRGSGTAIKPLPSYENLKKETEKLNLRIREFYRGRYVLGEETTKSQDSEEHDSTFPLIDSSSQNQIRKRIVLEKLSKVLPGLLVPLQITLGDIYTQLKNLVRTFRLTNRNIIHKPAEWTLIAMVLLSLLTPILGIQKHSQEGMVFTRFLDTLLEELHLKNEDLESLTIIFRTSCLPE
UniProt Q8N5K1: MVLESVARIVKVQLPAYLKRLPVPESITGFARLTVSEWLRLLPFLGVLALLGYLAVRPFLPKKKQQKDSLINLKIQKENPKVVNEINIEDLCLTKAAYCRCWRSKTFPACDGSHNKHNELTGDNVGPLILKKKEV
UniProt Q86UE8, whole entry, looked up: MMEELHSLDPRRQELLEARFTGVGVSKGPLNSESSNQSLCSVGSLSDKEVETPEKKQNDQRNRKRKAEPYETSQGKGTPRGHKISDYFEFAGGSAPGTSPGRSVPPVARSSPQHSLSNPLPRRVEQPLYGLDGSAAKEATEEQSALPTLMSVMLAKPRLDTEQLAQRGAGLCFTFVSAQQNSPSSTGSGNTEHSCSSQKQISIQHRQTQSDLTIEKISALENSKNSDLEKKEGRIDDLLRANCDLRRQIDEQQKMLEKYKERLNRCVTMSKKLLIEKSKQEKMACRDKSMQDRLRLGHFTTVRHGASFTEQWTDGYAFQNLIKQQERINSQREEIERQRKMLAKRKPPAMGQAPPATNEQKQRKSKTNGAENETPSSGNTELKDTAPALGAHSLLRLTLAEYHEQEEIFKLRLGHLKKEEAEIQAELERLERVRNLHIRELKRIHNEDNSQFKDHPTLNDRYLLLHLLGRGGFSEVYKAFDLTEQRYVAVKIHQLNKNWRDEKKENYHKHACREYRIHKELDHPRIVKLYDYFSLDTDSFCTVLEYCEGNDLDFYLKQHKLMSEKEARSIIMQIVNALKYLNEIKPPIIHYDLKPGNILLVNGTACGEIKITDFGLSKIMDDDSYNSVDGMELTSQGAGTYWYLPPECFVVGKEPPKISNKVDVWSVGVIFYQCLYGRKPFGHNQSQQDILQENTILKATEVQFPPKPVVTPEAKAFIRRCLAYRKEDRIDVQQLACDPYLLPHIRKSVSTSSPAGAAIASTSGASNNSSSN
UniProt Q8IWE4: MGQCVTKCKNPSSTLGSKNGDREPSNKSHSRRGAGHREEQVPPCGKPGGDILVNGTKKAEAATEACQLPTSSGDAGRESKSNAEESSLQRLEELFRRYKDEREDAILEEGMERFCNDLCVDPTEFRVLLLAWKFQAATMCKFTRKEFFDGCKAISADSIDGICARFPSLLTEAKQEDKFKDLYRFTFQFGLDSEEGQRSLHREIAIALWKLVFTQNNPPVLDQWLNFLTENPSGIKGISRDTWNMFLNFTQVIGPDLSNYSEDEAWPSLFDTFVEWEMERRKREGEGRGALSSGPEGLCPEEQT
UniProt Q86TI2: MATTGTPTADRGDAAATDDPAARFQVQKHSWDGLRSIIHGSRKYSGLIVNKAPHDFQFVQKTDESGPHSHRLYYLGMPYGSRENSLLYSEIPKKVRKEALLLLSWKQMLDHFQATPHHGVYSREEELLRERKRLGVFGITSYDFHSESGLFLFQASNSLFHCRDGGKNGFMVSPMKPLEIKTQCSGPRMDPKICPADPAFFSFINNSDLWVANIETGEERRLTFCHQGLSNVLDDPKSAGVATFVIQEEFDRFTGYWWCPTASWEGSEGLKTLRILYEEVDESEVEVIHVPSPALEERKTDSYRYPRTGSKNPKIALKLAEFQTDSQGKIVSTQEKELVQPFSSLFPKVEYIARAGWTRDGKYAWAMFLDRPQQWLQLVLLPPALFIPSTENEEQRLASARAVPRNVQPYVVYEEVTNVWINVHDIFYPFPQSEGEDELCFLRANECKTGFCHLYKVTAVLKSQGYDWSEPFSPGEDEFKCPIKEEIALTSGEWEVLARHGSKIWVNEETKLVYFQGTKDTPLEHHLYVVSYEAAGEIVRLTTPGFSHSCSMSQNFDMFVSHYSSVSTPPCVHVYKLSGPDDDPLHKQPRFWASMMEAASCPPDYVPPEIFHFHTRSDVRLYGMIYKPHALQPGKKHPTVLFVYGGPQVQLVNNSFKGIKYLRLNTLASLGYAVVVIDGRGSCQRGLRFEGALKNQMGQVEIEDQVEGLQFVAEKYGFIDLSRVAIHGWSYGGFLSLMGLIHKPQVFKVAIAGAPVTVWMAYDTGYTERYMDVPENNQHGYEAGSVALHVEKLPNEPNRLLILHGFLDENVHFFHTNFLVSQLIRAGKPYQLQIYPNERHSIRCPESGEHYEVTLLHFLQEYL
UniProt Q8IUR0, whole entry: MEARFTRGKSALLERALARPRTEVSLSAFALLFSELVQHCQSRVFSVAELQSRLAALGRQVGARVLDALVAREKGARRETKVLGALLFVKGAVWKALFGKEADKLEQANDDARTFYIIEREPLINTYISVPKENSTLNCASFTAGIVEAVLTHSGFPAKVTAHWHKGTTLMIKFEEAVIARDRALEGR
UniProt Q8NAV1: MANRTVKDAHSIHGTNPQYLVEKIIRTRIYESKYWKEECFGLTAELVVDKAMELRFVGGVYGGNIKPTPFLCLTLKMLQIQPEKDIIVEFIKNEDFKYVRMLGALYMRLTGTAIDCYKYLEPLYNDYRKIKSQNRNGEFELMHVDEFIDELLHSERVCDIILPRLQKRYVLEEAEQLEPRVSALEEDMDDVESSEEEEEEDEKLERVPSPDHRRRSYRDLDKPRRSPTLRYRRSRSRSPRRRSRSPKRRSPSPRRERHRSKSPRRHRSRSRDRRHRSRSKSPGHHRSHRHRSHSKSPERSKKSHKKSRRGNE
UniProt Q8N697: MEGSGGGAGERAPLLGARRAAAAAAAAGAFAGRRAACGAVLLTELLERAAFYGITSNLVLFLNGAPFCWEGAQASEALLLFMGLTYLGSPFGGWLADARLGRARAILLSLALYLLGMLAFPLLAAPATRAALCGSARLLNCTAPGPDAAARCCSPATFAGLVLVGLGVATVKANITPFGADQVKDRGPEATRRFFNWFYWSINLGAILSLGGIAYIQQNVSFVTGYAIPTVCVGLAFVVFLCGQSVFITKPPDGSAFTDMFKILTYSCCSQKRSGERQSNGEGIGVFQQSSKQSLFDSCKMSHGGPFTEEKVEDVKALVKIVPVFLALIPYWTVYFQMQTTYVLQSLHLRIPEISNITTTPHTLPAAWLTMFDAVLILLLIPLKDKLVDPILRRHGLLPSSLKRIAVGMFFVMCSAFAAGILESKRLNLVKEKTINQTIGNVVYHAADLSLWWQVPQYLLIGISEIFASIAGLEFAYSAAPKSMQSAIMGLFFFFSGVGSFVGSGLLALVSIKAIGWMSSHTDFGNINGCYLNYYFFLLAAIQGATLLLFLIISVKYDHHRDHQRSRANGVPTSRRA
UniProt Q8IXS8: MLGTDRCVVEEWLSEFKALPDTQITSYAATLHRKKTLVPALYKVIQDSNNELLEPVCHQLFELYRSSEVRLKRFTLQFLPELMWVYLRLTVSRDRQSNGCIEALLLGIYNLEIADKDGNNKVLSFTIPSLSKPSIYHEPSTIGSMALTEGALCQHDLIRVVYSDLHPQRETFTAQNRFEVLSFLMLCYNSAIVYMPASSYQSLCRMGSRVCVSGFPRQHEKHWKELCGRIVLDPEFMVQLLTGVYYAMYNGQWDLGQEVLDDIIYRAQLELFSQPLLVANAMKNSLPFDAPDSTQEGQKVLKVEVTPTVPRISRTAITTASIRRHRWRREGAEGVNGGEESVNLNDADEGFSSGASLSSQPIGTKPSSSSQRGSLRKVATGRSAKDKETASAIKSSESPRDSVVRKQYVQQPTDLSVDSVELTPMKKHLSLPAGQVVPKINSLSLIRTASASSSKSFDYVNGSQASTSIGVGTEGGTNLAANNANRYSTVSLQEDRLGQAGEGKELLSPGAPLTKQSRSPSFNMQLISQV

Each target was assayed with Nc1ncnc2c1ncn2[C@@H]1O[C@H](COP(=O)(O)OP(=O)(O)NP(=O)(O)O)[C@@H](O)[C@H]1O [adenylyl imidodiphosphate] (assay: NP40-soluble protein abundance relative to vehicle (solubility fold change) (ratio); higher = more soluble protein in presence of AMP-PNP). Conditions: concentration: 0.1mM.
How it was run: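 Eight concentrations, 0.1 to 10 mM, were tested on Jurkat crude lysate for 10 min at room temperature and then 3 min at 37 °C, in three independent experiments. The lysate was solubilised with 0.8% NP40 and benzonase, ultracentrifuged, and the supernatant TMT-labelled for LC-MS/MS. Each value is the fold change against the detergent-processed vehicle in its own replicate, from vsn-normalised intensities.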
UniProt Q86XL3 and related entries showed an NP40-soluble protein abundance of 0.9793 ± 0.0083. With ZCCHC9 (UniProt Q8N567) the NP40-soluble protein abundance was 1.03 ± 0.043. For CCDC25 (UniProt Q86WR0), the NP40-soluble protein abundance was 0.982 ± 0.029. Q8N655 (UniProt Q96JN0) gave an NP40-soluble protein abundance of 1.056 ± 0.0096. With UniProt Q86W92 and related entries the NP40-soluble protein abundance was 1.02 ± 0.012. C9orf40 (UniProt Q8IXQ3) was tested, and the NP40-soluble protein abundance was 0.989 ± 0.025. Work on UniProt Q8IWV8 and related entries yielded an NP40-soluble protein abundance of 0.991 ± 0.025. UniProt Q8IVS2 showed an NP40-soluble protein abundance of 1.01 ± 0.018. HSCB (UniProt Q8IWL3) showed an NP40-soluble protein abundance of 1.01 ± 0.042. In the case of GPAT4 (UniProt Q86UL3), the NP40-soluble protein abundance is reported as 1.01 ± 0.015. EXOC8 (UniProt Q8IYI6) showed an NP40-soluble protein abundance of 1.01 ± 0.011. With C1orf52 (UniProt Q8N6N3) the NP40-soluble protein abundance was 0.978 ± 0.038. For UniProt Q8IXW5 and related entries, the NP40-soluble protein abundance was 1 ± 0.024. In the case of CISD2 (UniProt Q8N5K1), the NP40-soluble protein abundance is reported as 1.032 ± 0.0039. Target UniProt Q86UE8-2|Q86UE8-3|J3QLK5 has an NP40-soluble protein abundance of 1.01 ± 0.042. In the case of DCUN1D3 (UniProt Q8IWE4), the NP40-soluble protein abundance is reported as 1 ± 0.035. With UniProt Q8IV53 and related entries the NP40-soluble protein abundance was 0.978 ± 0.01. In the case of UniProt Q8N4C8 and related entries, the NP40-soluble protein abundance is reported as 1.01 ± 0.047. Work on RABEPK (UniProt Q7Z6M1) yielded an NP40-soluble protein abundance of 0.973 ± 0.034. UniProt Q86TI2 and related entries gave an NP40-soluble protein abundance of 0.989 ± 0.049. For “UniProt Q8N9N2-2|E9PKM6 and related entries”, the NP40-soluble protein abundance was 1.02 ± 0.032. For UniProt Q7Z7A4 and related entries, the NP40-soluble protein abundance was 1.01 ± 0.073. UniProt Q86UY8 and related entries gave an NP40-soluble protein abundance of 1 ± 0.028. For TRAPPC5 (UniProt Q8IUR0), the NP40-soluble protein abundance was 0.982 ± 0.064. With PRPF38A (UniProt Q8NAV1) the NP40-soluble protein abundance was 1.007 ± 0.0069. UniProt Q8N7H5 and related entries was tested, and the NP40-soluble protein abundance was 0.987 ± 0.016. In the case of SLC15A4 (UniProt Q8N697), the NP40-soluble protein abundance is reported as 0.989 ± 0.015. UniProt Q86YP4-2|Q86YP4-3|Q86YP4 was tested, and the NP40-soluble protein abundance was 1.02 ± 0.03. In the case of FAM126B (UniProt Q8IXS8), the NP40-soluble protein abundance is reported as 0.983 ± 0.029. With UniProt Q8IXQ5 and related entries the NP40-soluble protein abundance was 0.995 ± 0.026. Target UniProt Q8IZE3-2|X6RHX1 has an NP40-soluble protein abundance of 1.02 ± 0.033. UniProt Q8N122 and related entries was tested, and the NP40-soluble protein abundance was 0.974 ± 0.019. PALB2 (UniProt Q86YC2) showed an NP40-soluble protein abundance of 0.995 ± 0.025. In the case of UniProt Q86UT6 and related entries, the NP40-soluble protein abundance is reported as 1.02 ± 0.025. VPS52 (UniProt Q8N1B4) gave an NP40-soluble protein abundance of 0.9829 ± 0.0024. MRPL41 (UniProt Q8IXM3) showed an NP40-soluble protein abundance of 0.995 ± 0.026. Target TXNDC5 (UniProt Q8NBS9) has an NP40-soluble protein abundance of 0.966 ± 0.033.
